Measurements from “University of Dundee, Small-Polar-MMV Screening Library” (2021), ChEMBL document CHEMBL3988442.

Values are the deposited “Percent Effect”, in %. The controls that fix the scale are not given in the record; negative values are as filed. This is an unselected part of the compounds tested. Two or more numbers in one place are separate tests of the same structure; such repeats can differ widely.

Mtb glucose medium: 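Phenotypic screen: M. tuberculosis growth, glucose 7H9 medium, 3 days; the read-out is not stated. Tested at 50 µM. Higher reads as more growth inhibition (inferred: compounds with an IC50 in retests scored well above the rest). Size under these conditions: about 69,000 compounds, about 760 of them at 50% or above in at least one test.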
Mtb cholesterol medium: 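Whole-cell growth test on Mycobacterium tuberculosis, read after 4 days in a medium based on cholesterol and the lipid DPPC; the read-out is not stated. Concentration: 50 µM. The record gives no direction; compounds that gave an IC50 in retests scored well above the rest, so higher reads as more growth inhibition. Size under these conditions: about 69,000 compounds, about 370 of them at 50% or above in at least one test.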

| SMILES | Mtb glucose medium | Mtb cholesterol medium |
|---|---|---|
| `CCc1nnc(N2C[C@@H](CN(C)CCO)[C@@H](CO)C2)s1` | -0.621 | 4.495 |
| `CCc1ncncc1C(=O)NC1CCc2nc(C)cn2C1` (stereo not shown) | 8.291 | 2.916 |
| `CCc1nc(C)c([C@H]2CN(C)C[C@@H]2C(=O)NCc2ccccn2)[nH]1` | 20.62 | 8.154 |
| `O=C(O)C(F)(F)F.[H][C@@]12CCCO[C@]1([H])[C@@H](OCc1ccccn1)CN2C(=O)c1cnoc1C` | 20.17 | 6.363 |
| `CSCC(=O)N1CCCN(Cc2cscn2)CC1` | -5.774 | -10.03 |
| `COc1ccc(OC)c(CNCc2c(C(C)C)nn(C)c2N(C)C)c1` | 12.92 | 2.12 |
| `O=C(CN1CCCS1(=O)=O)NCCOc1ccc2c(c1)CCC2` | -2.755 | 4.018 |
| `Cc1nn(-c2ccccc2)c(C)c1CNC(=O)NC1CC(=O)N(C)C1` (stereo not shown) | 13.12 & -3.632 | -5.082 |
| `CN1CCN(C2COC3(CCN(Cc4ccc(F)cc4)CC3)C2)CC1.O=C(O)C(F)(F)F.O=C(O)C(F)(F)F.O=C(O)C(F)(F)F` (stereo not shown) | -31.16 | -9.399 & -7.423 |
| `Cc1cc(F)cc(S(=O)(=O)NCCCN2CCC(O)CC2)c1` | -62.57 | -41.78 |
| `Cc1nn(CC(C)C)c(N(C)C)c1CNCc1ccccc1CO` | 3.723 & 15.93 | 12.76 |
| `CCCOC1CCCN(c2ncnc3c2CCN(C(=O)C2CC2)C3)C1` (stereo not shown) | -16.57 & 13.87 | -13.48 |
| `Cc1cc(CNC(=O)N2CCOC(c3ccccc3Cl)C2)no1` (stereo not shown) | 19.58 | 12.88 |
| `O=C(O)CC(O)(CC(=O)O)C(=O)O.[H][C@@]12CC[C@@](O)(c3ccc(C)cn3)[C@]1([H])CN(Cc1cnc(OC)nc1)C2` | 28.55 | 5.675 |
| `c1ccc2sc(N3CCN(c4ncnc5c4CCC5)CC3)nc2c1` | 26.06 | 14.15 |
| `O=C(Cc1ccc2c(c1)OCO2)N1CCN(c2ccncc2)CC1` | -26.64 | -7.904 |
| `Cc1cc(CN(C)C(=O)NC2CCN(Cc3ccccc3)C2)no1` (stereo not shown) | 21.38 | -11.93 |
| `COc1ccc(CN2CCC3(CCCN(c4ncc(F)cn4)C3)C2)cc1.O=C(O)C(F)(F)F` (stereo not shown) | 32.95 | 9.101 |
| `[H][C@@]12CS(=O)(=O)C[C@]1([H])N(C(=O)c1ccccc1C(C)=O)CCN2CCOC` | -24.97 | -19.7 |
| `COc1cccc(-c2ccc3nc(C4CCN(C(C)=O)CC4)nn3c2)c1` | 43.14 | 22.96 |
| `Cc1nn(C)c(C)c1C(=O)N1CCN(C(=O)CCC2CCCCC2)CC1` | 0.908 & -0.2956 | 11.71 |
| `O=C(CC1CCCCC1)NC1CCCCNC1=O` (stereo not shown) | -14.26 | -8.119 |
| `c1cnnc(-c2noc(COCC3CCCO3)n2)c1` (stereo not shown) | -46.88 | -11.44 |
| `NC(=O)C1CCCN1Cc1nccn1CC(F)(F)F` (stereo not shown) | 15.49 & -1.309 | 0.4469 |
| `COc1cc(OC)cc(C(=O)NCCCNc2ncccn2)c1` | 2.247 | 7.027 |
| `[H][C@@]12C[C@H](C)O[C@]1([H])CCN(C(=O)CC1CC1)C2` | -24.44 | 2.296 & -22.49 |
| `CNC(=O)NCC(CO)Cc1cccc(OC(F)(F)F)c1` (stereo not shown) | -7.892 | 6.217 |
| `OCCc1cc(C2CCCN2c2ncccn2)n[nH]1` (stereo not shown) | 2.973 | -0.5036 & -13.52 |
| `CC(=O)Nc1nc(C2CCN(CC(N)=O)CC2)cs1` | 10.3 | -13.37 |
| `Cn1nc(COc2cncnc2)c2c1CCN(Cc1ccccn1)C2.O=C(O)C(F)(F)F` | 1.504 | -17.07 |
| `N#Cc1cn[nH]c1NCc1cc(I)cc(I)c1O` | 33.95 | 14.44 |
| `O=C(NCc1nnc2n1CCCC2)c1ccc(C2CCCO2)s1` (stereo not shown) | -27.31 | 2.294 |
| `c1ccc(-n2cc(CN3CCCC(Cn4cncn4)C3)nn2)cc1` (stereo not shown) | -21.14 | -16.42 |
| `Cn1c(CCCNC(=O)Nc2cn[nH]c2)nc2ccccc21` | -10.24 & -4.487 | -0.4899 |
| `CS(=O)(=O)CCNC(=O)C1(c2cccc(Cl)c2)CCCCC1` | -20.94 & -21.29 | -32.59 |
| `O=C(CCn1cnnn1)N1CCCC(CO)(CCCc2ccccc2)C1` (stereo not shown) | 4.76 & 7.993 | 15.63 |
| `C[C@@H](NCc1cccc(Cl)c1)c1onc(-c2ccccc2)c1C(=O)O` | -7.046 & -4.022 | -15.07 |
| `CC1CCCN(C(=O)c2ccc(-c3ccco3)o2)C1` (stereo not shown) | 21.93 | 17.52 |
| `COCc1cn(C2CCN(CCC(C)c3ccccc3)CC2)nn1` (stereo not shown) | -5.051 & 5.537 | 1.49 |
| `O=C(O)C(F)(F)F.[H][C@@]12CCCO[C@]1([H])[C@H](N(CC)CC)CN2C(=O)c1ccnnc1` | 16.26 & 2.412 | 0.06932 |
| `CCCN(Cc1ccccc1)Cn1nc(C)c2c(C)onc2c1=O` | 19.92 | -11.3 |
| `Cc1cnn(CC2CCCN2C(=O)c2n[nH]c3ccccc23)c1` (stereo not shown) | 14.45 | 7.808 |
| `CCC(C)(C)NC(=O)c1ccc(-c2ccco2)[nH]c1=O` | 2.498 | -3.499 |
| `COc1nccc(C(F)(F)F)c1C(=O)O` | -5.018 & -22.91 | -23.58 |
| `O=C(O)C(F)(F)F.[H][C@@]12COC[C@]1(COCc1cccnc1)CN(C(=O)Cc1ccsc1)C2` | -4.641 & -24.07 | 6.734 & -21.76 |
| `Cc1cccc(CNC(=O)N(CCCO)C2CCc3ccccc32)n1` (stereo not shown) | 2.533 | -16.19 |
| `CCN1CCC2(CC1)CC(NC(=O)c1c[nH]cn1)c1ccccc1O2` (stereo not shown) | -8.307 | -19.52 |
| `Cc1cc(C2CCCN(C(=O)c3cnn(C)c3)C2)ccn1` (stereo not shown) | 17.63 | -2.586 |
| `O=C(O)C(F)(F)F.O=C(O)C(F)(F)F.O=C(O)C(F)(F)F.[H][C@@]12CN(CCOC)CCO[C@]1([H])CN(Cc1ccccn1)C2` | -3.857 & -5.555 | 7.883 |
| `Cc1ccc(CN2CCC3(CC2)CN(c2cnn(C)c2)C(=O)CO3)o1.O=C(O)C(F)(F)F` | -0.5405 | -2.602 |
| `CCn1ncc2c1C(COC)CN(S(=O)(=O)C1CC1)C2` (stereo not shown) | 6.645 & -4.591 | -8.928 |

The first 5 entries again:

SMILES,Mtb glucose medium,Mtb cholesterol medium
CCc1nnc(N2C[C@@H](CN(C)CCO)[C@@H](CO)C2)s1,-0.621,4.495
CCc1ncncc1C(=O)NC1CCc2nc(C)cn2C1 (stereo not shown),8.291,2.916
CCc1nc(C)c([C@H]2CN(C)C[C@@H]2C(=O)NCc2ccccn2)[nH]1,20.62,8.154
O=C(O)C(F)(F)F.[H][C@@]12CCCO[C@]1([H])[C@@H](OCc1ccccn1)CN2C(=O)c1cnoc1C,20.17,6.363
CSCC(=O)N1CCCN(Cc2cscn2)CC1,-5.774,-10.03